Test results from patent US20070259817A1.

Molecular target: native collagen type-IV
Experiment: solid phase ELISA, labeled CLK-peptide on coated plates; FIG. 15

- binding: no binding
B1: HRP-labeled CLK-Peptide (peptide)
peptide: CLKQNGGNFSLG
modifications: HRP label (site of attachment not stated)

No constants are given. Whether binding was seen depends on the method and setting.
